In publication PMC10951364:
These are yes or no findings as the source states them, for the method shown. In cells and extracts the contact can be indirect. A yes stands for co-enrichment or nearness to the bait. Other partners may have been found.

Protein sequences, listed by entry. Tags and fused reporters are not part of them.
UniProt Q7Z6E9: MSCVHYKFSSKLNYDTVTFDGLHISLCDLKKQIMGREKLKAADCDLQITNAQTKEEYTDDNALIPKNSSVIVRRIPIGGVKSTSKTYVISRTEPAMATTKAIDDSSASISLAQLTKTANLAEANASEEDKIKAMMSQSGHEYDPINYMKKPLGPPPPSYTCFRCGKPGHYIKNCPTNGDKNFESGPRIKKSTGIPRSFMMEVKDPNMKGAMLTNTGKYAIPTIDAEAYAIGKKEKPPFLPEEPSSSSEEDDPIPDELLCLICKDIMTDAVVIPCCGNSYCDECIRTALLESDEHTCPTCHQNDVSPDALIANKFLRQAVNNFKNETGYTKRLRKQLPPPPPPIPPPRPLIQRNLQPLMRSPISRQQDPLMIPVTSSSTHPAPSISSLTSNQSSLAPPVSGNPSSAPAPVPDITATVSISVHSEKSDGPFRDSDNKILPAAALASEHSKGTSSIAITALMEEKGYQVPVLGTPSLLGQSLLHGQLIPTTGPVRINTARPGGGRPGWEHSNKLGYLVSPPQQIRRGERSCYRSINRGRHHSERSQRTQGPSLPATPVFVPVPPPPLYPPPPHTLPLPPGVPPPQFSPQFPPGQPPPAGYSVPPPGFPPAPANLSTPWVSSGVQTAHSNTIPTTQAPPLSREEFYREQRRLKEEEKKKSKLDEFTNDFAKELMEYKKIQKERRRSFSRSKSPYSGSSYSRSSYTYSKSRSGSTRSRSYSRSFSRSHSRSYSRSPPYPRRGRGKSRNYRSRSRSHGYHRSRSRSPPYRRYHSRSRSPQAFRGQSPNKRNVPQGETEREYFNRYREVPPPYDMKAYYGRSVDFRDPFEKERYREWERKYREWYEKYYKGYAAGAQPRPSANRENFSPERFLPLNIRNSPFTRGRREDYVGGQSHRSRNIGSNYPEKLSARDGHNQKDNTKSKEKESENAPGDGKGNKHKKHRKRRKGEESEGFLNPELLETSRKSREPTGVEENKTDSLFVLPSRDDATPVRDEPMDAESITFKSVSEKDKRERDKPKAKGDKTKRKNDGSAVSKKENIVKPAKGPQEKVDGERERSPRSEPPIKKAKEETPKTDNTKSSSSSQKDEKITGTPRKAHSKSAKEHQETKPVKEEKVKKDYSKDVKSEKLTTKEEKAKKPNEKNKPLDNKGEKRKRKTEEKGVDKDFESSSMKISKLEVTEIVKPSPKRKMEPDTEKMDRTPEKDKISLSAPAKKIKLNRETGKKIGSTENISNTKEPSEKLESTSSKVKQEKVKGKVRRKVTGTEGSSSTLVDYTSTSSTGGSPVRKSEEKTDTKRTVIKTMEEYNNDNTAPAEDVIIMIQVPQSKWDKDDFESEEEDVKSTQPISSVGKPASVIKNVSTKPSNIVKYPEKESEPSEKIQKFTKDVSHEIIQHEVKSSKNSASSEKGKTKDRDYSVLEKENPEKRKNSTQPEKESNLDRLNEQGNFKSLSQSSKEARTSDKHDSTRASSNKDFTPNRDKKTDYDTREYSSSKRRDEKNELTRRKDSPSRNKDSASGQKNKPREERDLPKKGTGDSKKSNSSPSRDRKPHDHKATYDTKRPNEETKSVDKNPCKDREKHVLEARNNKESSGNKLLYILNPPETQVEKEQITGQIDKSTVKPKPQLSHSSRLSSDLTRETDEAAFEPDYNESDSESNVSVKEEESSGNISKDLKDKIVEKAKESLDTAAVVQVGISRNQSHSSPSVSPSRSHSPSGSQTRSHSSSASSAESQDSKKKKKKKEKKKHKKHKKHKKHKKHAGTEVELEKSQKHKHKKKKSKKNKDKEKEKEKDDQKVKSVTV

B1: Cleavage and Polyadenylation Specific Factor 3 (CPSF3) (protein, UniProt Q9UKF6 1-684)
chain: MSAIPAEESDQLLIRPLGAGQEVGRSCIILEFKGRKIMLDCGIHPGLEGMDALPYIDLIDPAEIDLLLISHFHLDHCGALPWFLQKTSFKGRTFMTHATKAIYRWLLSDYVKVSNISADDMLYTETDLEESMDKIETINFHEVKEVAGIKFWCYHAGHVLGAAMFMIEIAGVKLLYTGDFSRQEDRHLMAAEIPNIKPDILIIESTYGTHIHEKREEREARFCNTVHDIVNRGGRGLIPVFALGRAQELLLILDEYWQNHPELHDIPIYYASSLAKKCMAVYQTYVNAMNDKIRKQININNPFVFKHISNLKSMDHFDDIGPSVVMASPGMMQSGLSRELFESWCTDKRNGVIIAGYCVEGTLAKHIMSEPEEITTMSGQKLPLKMSVDYISFSAHTDYQQTSEFIRALKPPHVILVHGEQNEMARLKAALIREYEDNDEVHIEVHNPRNTEAVTLNFRGEKLAKVMGFLADKKPEQGQRVSGILVKRNFNYHILSPCDLSNYTDLAMSTVKQTQAIPYTGPFNLLCYQLQKLTGDVEELEIQEKPALKVFKNITVIQEPGMVVLEWLANPSNDMYADTVTTVILEVQSNPKIRKGAVQKVSKKLEMHVYSKRLEIMLQDIFGEDCVSVKDDSILSVTVDGKTANLNLETRTVECEEGSEDDESLREMVELAAQRLYEALTPVH
B2: CPSF2 (protein, UniProt Q9P2I0 1-782)
chain: MTSIIKLTTLSGVQEESALCYLLQVDEFRFLLDCGWDEHFSMDIIDSLRKHVHQIDAVLLSHPDPLHLGALPYAVGKLGLNCAIYATIPVYKMGQMFMYDLYQSRHNTEDFTLFTLDDVDAAFDKIQQLKFSQIVNLKGKGHGLSITPLPAGHMIGGTIWKIVKDGEEEIVYAVDFNHKREIHLNGCSLEMLSRPSLLITDSFNATYVQPRRKQRDEQLLTNVLETLRGDGNVLIAVDTAGRVLELAQLLDQIWRTKDAGLGVYSLALLNNVSYNVVEFSKSQVEWMSDKLMRCFEDKRNNPFQFRHLSLCHGLSDLARVPSPKVVLASQPDLECGFSRDLFIQWCQDPKNSIILTYRTTPGTLARFLIDNPSEKITEIELRKRVKLEGKELEEYLEKEKLKKEAAKKLEQSKEADIDSSDESDIEEDIDQPSAHKTKHDLMMKGEGSRKGSFFKQAKKSYPMFPAPEERIKWDEYGEIIKPEDFLVPELQATEEEKSKLESGLTNGDEPMDQDLSDVPTKCISTTESIEIKARVTYIDYEGRSDGDSIKKIINQMKPRQLIIVHGPPEASQDLAECCRAFGGKDIKVYMPKLHETVDATSETHIYQVRLKDSLVSSLQFCKAKDAELAWIDGVLDMRVSKVDTGVILEEGELKDDGEDSEMQVEAPSDSSVIAQQKAMKSLFGDDEKETGEESEIIPTLEPLPPHEVPGHQSVFMNEPRLSDFKQVLLREGIQAEFVGGVLVCNNQVAVRRTETGRIGLEGCLCQDFYRIRDLLYEQYAIV
B3: CSTF2 (protein, UniProt P33240 1-577)
chain: MAGLTVRDPAVDRSLRSVFVGNIPYEATEEQLKDIFSEVGPVVSFRLVYDRETGKPKGYGFCEYQDQETALSAMRNLNGREFSGRALRVDNAASEKNKEELKSLGTGAPVIESPYGETISPEDAPESISKAVASLPPEQMFELMKQMKLCVQNSPQEARNMLLQNPQLAYALLQAQVVMRIVDPEIALKILHRQTNIPTLIAGNPQPVHGAGPGSGSNVSMNQQNPQAPQAQSLGGMHVNGAPPLMQASMQGGVPAPGQMPAAVTGPGPGSLAPGGGMQAQVGMPGSGPVSMERGQVPMQDPRAAMQRGSLPANVPTPRGLLGDAPNDPRGGTLLSVTGEVEPRGYLGPPHQGPPMHHVPGHESRGPPPHELRGGPLPEPRPLMAEPRGPMLDQRGPPLDGRGGRDPRGIDARGMEARAMEARGLDARGLEARAMEARAMEARAMEARAMEARAMEVRGMEARGMDTRGPVPGPRGPIPSGMQGPSPINMGAVVPQGSRQVPVMQGTGMQGASIQGGSQPGGFSPGQNQVTPQDHEKAALIMQVLQLTADQIAMLPPEQRQSILILKEQIQKSTGAP

Target: RB Binding Protein 6, Ubiquitin Ligase (RBBP6), bait of the IP-MS (human) (UniProt Q7Z6E9)
Experiment: affinity purification with mass spectrometry; immunoprecipitation of RBBP6 coupled with mass spectrometry (IP-MS); cells, bait and antibody not told

| binding | Binder |
| --- | --- |
| binds | B1 |
| binds | B2 |
| binds | B3 |
